From PubChem BioAssay AID1259415 (National Center for Advancing Translational Sciences (NCATS), 2018)
About 18,000 (4.4%) of roughly 410,000 compounds were called active. This list was built around the results that the source calls inconclusive (neither active nor inactive); the mix of calls is not that of the screen. No stated cut-off is given here; in the data, active means activity change below about -60%; inconclusive means no clear call, values can overlap the other calls; inactive means above about -39%.

assay: qHTS Assay for inhibitors of the human cytomegalovirus (HCMV); conditions: HFF cells, HCMV-luciferase reporter, 72 h; at 57.5 µM; active compounds read low
How it was run: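 Luciferase read-out from HCMV-luciferase-infected HFFs (MOI 1 PFU/cell) 72 h post infection at 37C; compounds added after 16 h cell attachment; activity normalized between buffer-only basal and Salinomycin (10uM) inhibitor controls.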
On the % scale 0 is the no-effect control and ±100 the full control effect.

Row | Structure (SMILES) | activity change, negative = inhibition
1 | Cc1ccccc1Nc1nnc(-c2ccc(C)c(S(=O)(=O)N3CCCCC3)c2)c2ccccc12 | active: -63.3%
2 | Cc1ccccc1C(=O)Nc1ccc2oc(-c3ccc(Cl)c(Cl)c3)nc2c1 | inactive: 10.2%
3 | CC(C)(C)OC(=O)N(CCc1ccccc1)Cc1ccccc1OCc1ccc(NC(=O)C2CCC2)cc1 | inconclusive: -58.6%
4 | CCOc1ccc(OCC)c(NC(=O)CN(C)S(=O)(=O)c2ccc3nc(C)sc3c2)c1 | inconclusive: -55.3%
5 | O=C1NC[C@H](Cc2ccccc2)N(CC2CCN(CCC3CCCC3)CC2)C1=O | inactive: -13.8%
6 | O=C(N/N=C/c1cccs1)[C@H]1C[C@@H]1c1ccccc1 | inconclusive: -50.7%
7 | COCCNC(=O)c1ccc(CS(=O)(=O)c2ccc(OC)cc2)o1 | inactive: -3.08%
8 | CCc1cc2c(NC3CCCC3)ncnc2s1 | active: -76.1%
9 | COc1nnc(-c2ccc(N3CCCCC3)c(NC(=O)c3ccccc3)c2)c2ccccc12 | inactive: -24.6%
10 | Cc1ccc(NC(=O)C2(C)CCN2Cc2ccccc2OC(F)F)cc1 (stereo unspecified) | inconclusive: -54.9%
11 | O=C(O)C1C2C=CC(C2)C1C(=O)NCc1ccccc1 (stereo unspecified) | inconclusive: -46.3%
12 | CCOC(=O)c1ccc(/C=C2/C=C(c3ccccc3)N(c3ccc(Cl)c(C(=O)O)c3)C2=O)cc1 | inactive: 3.59%
13 | CCOc1cc(C)c(C(C)C)cc1S(=O)(=O)n1ccnc1CC | inactive: -4.95%
14 | Cc1ccc(CNc2nc(C)nc3sc4c(c23)CCC4)cc1 | inconclusive: -49.2%
15 | O=C(O)c1ncn(Cc2ccc(Br)cc2)c1C(=O)O | inconclusive: -41.7%
16 | CC(C)[C@H](NC(=O)c1ccccc1F)C(=O)OCC(=O)Nc1sccc1C(N)=O | inactive: 0%
17 | O=C(NCC1CCCN1S(=O)(=O)c1cccs1)c1ccccc1F (stereo unspecified) | inconclusive: -47.8%
18 | Cc1cc(C(=O)COC(=O)CNS(=O)(=O)c2ccc3ccccc3c2)c(C)n1-c1ccccc1 | inactive: 15.9%
19 | CCC(Oc1cc(Cl)ccc1Cl)C(=O)NN1C(=O)C2C3CCC(C3=C(C)C)C2C1=O (stereo unspecified) | inconclusive: -44.3%
20 | Cc1n[nH]c(=O)c2c(NC(=O)CSc3nn(-c4ccccc4)c(=S)s3)oc(C)c12 | active: -98.5%
21 | COc1ccc(CC(=O)N2CCCC(C)C2)cc1 (stereo unspecified) | inconclusive: -49.3%
22 | O=C(C[n+]1cc(-c2ccc(Cl)c(Cl)c2)n2c1CCC2)N1c2ccccc2Sc2ccccc21 | inactive: -23.9%

Row | Structure (SMILES) | activity change, negative = inhibition
23 | CCOC(=O)N1CCc2c(sc3c2c(=O)n(-c2ccc(CC)cc2)c(=O)n3CC(=O)c2ccccc2)C1 | inconclusive: -53.6%
24 | CN(Cc1ccccc1)S(=O)(=O)c1ccc(Cl)c(C(=O)N2CCC(C(N)=O)CC2)c1 | inconclusive: -41.2%
25 | COC(=O)CCC(=O)N1CCCC(CO)(Cc2ccccc2C)C1 (stereo unspecified) | inconclusive: -44%
26 | CC(=O)c1cc2c(cc1NC(=O)c1ccc(C)cc1)OCCO2 | inactive: 101%
27 | CC(C)(C)Nc1nc(NN)nc(NC(C)(C)C)n1 | active: -84.6%
28 | CCOC(=O)C1=C(C)NC(=S)NC1c1ccsc1 (stereo unspecified) | inconclusive: -42.1%
29 | Cc1ccc(-c2csc(=Nc3cccnc3)n2CCCN2CCCC2=O)cc1C | inconclusive: -46.9%
30 | COc1ccc(CCC(=O)NCc2nc3cccnc3n2Cc2cccc(OC)c2)cc1 | inconclusive: -50.5%
31 | CCCCc1nn2c(=O)cc(COC(=O)C(C)Oc3ccccc3)nc2s1 (stereo unspecified) | inactive: 14.6%
32 | Cc1c(C(=O)Nc2ccccc2Br)oc2ccc(S(=O)(=O)N3CCOCC3)cc12 | inactive: -36.3%
33 | COc1cccc(/C=N/NC(=O)CSc2nnc(C)n2-c2ccccc2)c1O | inactive: 15.6%
34 | Cc1ccc(C2CC(=O)C(C=NCCN3CCN(C(=S)Nc4ccc(F)cc4)CC3)=C(O)C2)cc1 (stereo unspecified) | inactive: 6.78%
35 | Cc1ccccc1OCC(=O)Nc1c(C)ccc2nsnc12 | inactive: -16.7%
36 | Cc1ccc(NCN2C(=O)C(=O)c3ccccc32)nc1 | inconclusive: -45.6%
37 | CC(=O)Nc1ccc(C(=O)N2CCCCC2c2cc(C(=O)Nc3ccccc3Cl)no2)cc1 (stereo unspecified) | inactive: -27.1%
38 | O=C(Cn1cc(S(=O)(=O)N2CCN(c3ccccc3F)CC2)c2ccccc2c1=O)NCCCN1CCCCCC1 | inactive: -17%
39 | COC(=O)[C@@]1(Cc2ccc(F)cc2)[C@H]2c3cc(C(=O)N(C)C)n(CCSCCO)c3C[C@H]2CN1C(=O)c1ccccc1 | inactive: 0%
40 | Cc1ccc2c(c1)-c1c(cnn1CC(=O)N(Cc1ccco1)C1CCCCC1)CO2 | inconclusive: -45.1%
41 | O=C1NC[C@@H](CCCCN2CCN(CCc3ccccc3)C(=O)C2=O)N(CC2CCCCC2)C1=O | inactive: -7.33%
42 | Cc1ccc(C)c(CSc2nnc(-c3cccs3)n2Cc2ccco2)c1 | inconclusive: -42.9%
43 | CCOc1ccc(NC(=O)CN2CCN(c3ccc(F)cc3)CC2)cc1 | inconclusive: -42.4%
44 | Cc1ccc(S(=O)(=O)N(Cc2n[nH]c(=S)n2-c2ccccc2)c2cccc(Cl)c2)cc1 | inconclusive: -40.6%

Row | Structure (SMILES) | activity change, negative = inhibition
45 | COc1ccccc1C(=O)NCCC(=O)Nc1ccncc1 | inconclusive: -44%
46 | COc1ccc(OC(C)C(=O)NCCC2=CCCCC2)cc1 (stereo unspecified) | inconclusive: -53.3%
47 | Cc1nccn1CCCNC(=O)CC1C(=O)NCCN1Cc1ccc(Cl)c(F)c1 (stereo unspecified) | inconclusive: -44.3%
48 | COC(=O)C1CSc2[nH]c(=O)sc2C1c1ccc(OC)c(OC)c1 (stereo unspecified) | inconclusive: -44.6%
49 | CCc1ccc(CN2CCC(n3nccc3NC(=O)Cc3ccccc3)CC2)o1 | inconclusive: -50.1%
50 | CSc1ncccc1C(=O)N1CCCC(N2CCN(c3ccccc3C)CC2)C1 (stereo unspecified) | inconclusive: -46.8%
51 | CC1CCCCC1NC(=O)CSc1nnnn1C (stereo unspecified) | inconclusive: -40.7%
52 | [O-][n+]1onc2c1CCc1[nH]c(-c3ccccc3)nc1-2 | active: -99.3%
53 | O=C(c1ccccc1)c1ccc(Cn2cc(CCCO)nn2)cc1 | inconclusive: -57.1%
54 | CCC(=O)Nc1ccc(S(=O)(=O)c2ccc(NC(=O)CC)cc2)cc1 | inactive: -27.8%
55 | CC(C)CC(=O)Nc1ccc(S(=O)(=O)Nc2nccs2)cc1 | inactive: 32.2%
56 | O=C(Nc1ccccc1F)c1ccccc1-c1ccccc1 | inconclusive: -51.3%
57 | CN(C(=S)Nc1ccc(Oc2ccccc2)cc1)C1CCCCC1 | inconclusive: -56%
58 | N#CCC(=O)NCCCOC(=O)Nc1ccc(Cl)c(Cl)c1 | inconclusive: -42%
59 | COc1ccc(S(=O)(=O)Nc2ccc(F)cc2)cc1N(C)S(=O)(=O)c1ccc(Cl)cc1 | active: -71.8%
60 | O=[N+]([O-])c1cc(/C=N\O)ccc1Oc1ccc(F)cc1 | inactive: 2.91%
61 | O=C(O)Cn1cc(/C=C/[N+](=O)[O-])c2ccccc21 | inactive: 83.5%
62 | CC(C)(C)c1cc(OC(=O)c2ccccc2F)ccc1O | inconclusive: -47.2%
63 | O=C(c1ccc(Cl)c(S(=O)(=O)N2CCCC2)c1)N1CCN(c2ccccn2)CC1 | inconclusive: -44.4%
64 | O=C(Nc1ccc(F)c(F)c1)C1CCN(S(=O)(=O)c2cccc3nonc23)CC1 | active: -76.6%
65 | Cc1ccccc1-n1c(SCC(=O)N(C)C2CCS(=O)(=O)C2)nnc1-c1ccncc1 (stereo unspecified) | inconclusive: -52%
66 | CCSc1ncc(Cl)c(C(=O)N(Cc2ccc(C(C)(C)C)cc2)C2CCS(=O)(=O)C2)n1 (stereo unspecified) | inconclusive: -58.6%

Row | Structure (SMILES) | activity change, negative = inhibition
67 | Nc1nnc(SCC(=O)c2ccc([N+](=O)[O-])cc2)s1 | inconclusive: -40.7%
68 | CC1(c2ccc3noc(-c4ccc(F)cc4)c3c2)OCCO1 | inactive: -39.6%
69 | O=S(=O)(NCCc1csc(-c2cccnc2)n1)c1cccc(F)c1 | inactive: -10.7%
70 | O=C(NCc1ccc2c(c1)OCO2)C1CCN(C(=O)Nc2ccc(Cl)cc2)CC1 | inactive: 62.7%
71 | Cc1ccc(C(NC(=O)/C=C\c2ccc3c(c2)OCO3)C(=O)Nc2ccc3c(c2)OCO3)cc1 (stereo unspecified) | inconclusive: -43.7%
72 | O=C(CCNC(=O)c1ccc(Br)cc1)NC1CCCc2ccccc21 (stereo unspecified) | active: -81.2%
73 | COc1ccc(C2(C)NC(=O)N(CC(=O)Nc3ccc(C)cc3Br)C2=O)cc1OC (stereo unspecified) | inactive: -5.28%
74 | Oc1ccccc1/C=N/NC(=S)NCCc1ccccc1 | active: -69.9%
75 | Cc1ccc(-c2ccc(CN3C(CC(C)C)C(=O)N(Cc4cn(CCC5OCCO5)nn4)CCS3(=O)=O)cc2)cc1 (stereo unspecified) | active: -101%
76 | O=C(CN(Cc1ccc(Cl)cc1)C(=O)CNS(=O)(=O)c1ccc(F)cc1)NCC1CCCO1 (stereo unspecified) | inconclusive: -50%
77 | Cc1ccc(-c2nc(S(=O)(=O)c3ccccc3)c(SCC(=O)NCC3CCCO3)o2)cc1 (stereo unspecified) | active: -60%
78 | CCN1CCc2c(sc(NC(=O)Nc3ccc(Cl)c(Cl)c3)c2C(N)=O)C1 | inactive: 37.9%
79 | NS(=O)(=O)c1ccc(N=Nc2c(O)c(C(=O)O)cc3ccccc23)cc1 | inconclusive: -52.3%
80 | CN(Cc1ccc(Cl)cc1)C(=O)c1cc(S(=O)(=O)N2CCOCC2)ccc1N1CCCC1 | inactive: -19.6%
81 | Cc1ccc(S(=O)(=O)N2CCCC2C(=O)NCCc2nc3ccccc3[nH]2)cc1 (stereo unspecified) | inconclusive: -48.5%
82 | CN(C)Cc1c(C(=O)N/N=C/c2cccc(OCc3c(F)cccc3Cl)c2)nnn1-c1nonc1N | active: -86.1%
83 | CCc1cc(C(=O)N2CCCC(C(=O)c3cccc4ccccc34)C2)n(C)n1 (stereo unspecified) | active: -60%
84 | CCCCNC(=O)c1ccccc1NC(=O)c1ccc2c(c1)OCO2 | inconclusive: -47.9%
85 | CCOc1cccc(C(=O)Nc2ccc(N(CC)CC)cc2)c1 | inactive: -25.5%
86 | Cc1ccc(C(=O)NC(=S)NNC(=O)c2ccccc2)cc1 | inactive: 7.47%

Reformatted with tabs: seven of the compounds above
Row	Structure (SMILES)	activity change, negative = inhibition
22	O=C(C[n+]1cc(-c2ccc(Cl)c(Cl)c2)n2c1CCC2)N1c2ccccc2Sc2ccccc21	inactive: -23.9%
25	COC(=O)CCC(=O)N1CCCC(CO)(Cc2ccccc2C)C1 (stereo unspecified)	inconclusive: -44%
45	COc1ccccc1C(=O)NCCC(=O)Nc1ccncc1	inconclusive: -44%
53	O=C(c1ccccc1)c1ccc(Cn2cc(CCCO)nn2)cc1	inconclusive: -57.1%
59	COc1ccc(S(=O)(=O)Nc2ccc(F)cc2)cc1N(C)S(=O)(=O)c1ccc(Cl)cc1	active: -71.8%
60	O=[N+]([O-])c1cc(/C=N\O)ccc1Oc1ccc(F)cc1	inactive: 2.91%
83	CCc1cc(C(=O)N2CCCC(C(=O)c3cccc4ccccc34)C2)n(C)n1 (stereo unspecified)	active: -60%
